Our source for the binding values is patent US20190177416A1 (NANOMAB TECHNOLOGY, published 2019).

Sequences of proteins named here, by UniProt entry; tags and fusion partners are left off. A change or cut given only in a name is not applied to a line headed by its entry.
UniProt Q9NZQ7: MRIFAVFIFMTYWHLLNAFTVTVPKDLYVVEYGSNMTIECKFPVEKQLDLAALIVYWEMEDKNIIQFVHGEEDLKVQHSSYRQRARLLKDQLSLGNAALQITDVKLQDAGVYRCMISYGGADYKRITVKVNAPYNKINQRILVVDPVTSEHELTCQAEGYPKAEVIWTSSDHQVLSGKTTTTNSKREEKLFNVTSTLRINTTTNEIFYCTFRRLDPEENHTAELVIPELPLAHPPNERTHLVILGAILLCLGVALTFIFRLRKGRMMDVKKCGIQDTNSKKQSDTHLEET

These are yes or no findings as the source states them, for the method shown. Some results given as binding are weak or reduced against the parent protein; the word gives no strength.

The test addresses T1, human PD-L1 protein (coated antigen) (human, UniProt Q9NZQ7 19-238, limits assumed).
T1 construct: Construct not described; also called PD-L1 antigen; antigenic protein PD-L1
In words: PE-ELISA on coated PD-L1. A general note: ELISA stands for enzyme-linked immunosorbent assay.

B1: SEQ ID NO 2 (VHH)
VHH: QVQLQESGGGSVQAGGSLRLSCAVSRYSASNNVIKWMGWFRQAPGKEREGVAALYTSGGNTYYADSVKGRFTISRDYSENTVSLQMNNLKPEDTGMYYCATTVGTVLAGPLSARKYNYWGQGTQVTVSS
notes: pMECS-expressed; also called anti-PD-L1 nanobody No. 2; VHH numbered 2
Consider B1, for which the binding result is reported as “binds”.

B2: SEQ ID NO 8 (VHH)
VHH: QVQLQESGGDSVQAGGSLRLACKVPGFTSNTCAMAWFRQAPGKEREFVSSISTGGTTGYAESAKGRFTLSKDEAKDTVYLQMNSLKPEDTAMYFCKSYACRTCIGRYCRTAPDAWGQGTQVTVSS
notes: pMECS-expressed; also called anti-PD-L1 nanobody No. 8; VHH numbered 8
Take B2: the binding entry is reported as “binds”.

B3: SEQ ID NO 145 (VHH)
VHH: QVQLQESGGGSVQAGGSLRLSCTAPGFTSNTCAMAWYRQAPGKEREFVSSRSTVGTTGYADSVKGRFTISKDEAKDTVYLQMNSLKPEDTAKYFCKTYACRDCIGRYCRTAPDAWGQGTQVTVSS
For B3, the binding entry is “binds”.
